From patent WO2023191079A1
No constants are given. Whether binding was seen depends on the method and setting. Some binding calls cover weakened binding; strength is not graded here. Tags and fused reporters may be left off the sequences shown.

Biological target: T1, C-reactive protein (CRP, Oriental Yeast Co., Ltd.) (UniProt P02741)
T1 sequence (looked up): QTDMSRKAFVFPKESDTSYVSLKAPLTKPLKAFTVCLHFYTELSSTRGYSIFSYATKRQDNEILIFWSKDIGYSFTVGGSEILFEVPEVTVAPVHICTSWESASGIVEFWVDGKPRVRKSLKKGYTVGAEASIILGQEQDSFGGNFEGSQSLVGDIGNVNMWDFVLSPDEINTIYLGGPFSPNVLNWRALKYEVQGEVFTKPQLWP
Test: plate ELISA, scFv-ST immobilised, 100 nM CRP, detection with mouse anti-CRP IgG (4C28 Mab C2) and HRP anti-mouse IgG

binding: binds
B1: scFv-ST (anti-CRP scFv antibody with SpyTag added) (scFv)
scFv: HMASQVQLQQSGAELVKPGASVKLSCTASGFNIKDYYMHWVKQRTEQGLEWIGRIDPEDGETKYAPKFQGKATITADTSSNTAYLQLSSLTSEDTAVYYCARGYYGSEAMDYWGQGTSLTVSSGGGGSGGGGSGGGGSTGSIVMTQSHKFMSTSVGDRVSITCKASQDVNTAVAWYQQKPGQSPKLLIYWASTRHTGVPDRFTGSGFGTDYTLTISSVQAEDLALYYCQQHYSTPWTFGGGTKLEIKRADAAPKLAAAGSGAHIVMVDAYKPTKAEQKLISEEDLNLGGGMRGSHHHHHH
